Data on one molecule can be found in patent US20020081280A1.

Amino acid sequences for entries named in this document (tags omitted). Residues count along the entry.
UniProt P78310, residues 20-365: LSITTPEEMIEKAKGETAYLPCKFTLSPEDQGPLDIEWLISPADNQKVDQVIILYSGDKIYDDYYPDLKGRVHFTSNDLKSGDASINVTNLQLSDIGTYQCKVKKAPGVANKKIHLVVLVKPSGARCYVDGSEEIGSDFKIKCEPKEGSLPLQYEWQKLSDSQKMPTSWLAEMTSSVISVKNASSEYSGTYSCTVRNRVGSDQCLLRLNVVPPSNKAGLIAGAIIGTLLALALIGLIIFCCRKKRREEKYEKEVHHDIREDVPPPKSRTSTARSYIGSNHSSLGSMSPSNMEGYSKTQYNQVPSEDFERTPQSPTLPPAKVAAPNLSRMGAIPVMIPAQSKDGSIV

Results are given in words; binding and its absence hold for the method and conditions named. Some results given as binding are weak or reduced against the parent protein; the word gives no strength.

This assay addresses coxsackievirus and adenovirus receptor (CAR) on human cells (human) (UniProt P78310). Briefly: 125I-virion binding to HUVEC cells at 4 °C, knob at 100 µg/ml.

B1: recombinant Ad5 fiber knob protein expressed in E. coli (protein)
chain: GAITVGNKNNDKLTLWTTPAPSPNCRLNAEKDAKLTLVLTKCGSQILATVSVLAVKGSLAPISGTVQSAHLIIRFDENGVLLNNSFLDPEYWNFRNGDLTEGTAYTNAVGFMPNLSAYPKSHGKTAKSNIVSQVYLNGDKTKPVTLTITLNGTQETGDTTPSAYSMSFSWDWSGHNYINEIFATSSYTFSYIAQE
Consider B1, for which the binding entry was “binds”.
